According to the supplement of paper PMC12067093, “Discovery and optimisation of a covalent ligand for TRIM25 and its application to targeted protein ubiquitination” (Chemical Science, 2025):
This is one part of the list.

Protein sequences, listed by entry. Tags and fused reporters are not part of them. Lines headed by an entry give the natural chain unless they say otherwise; changes in a name come on top.
UniProt Q86TI0: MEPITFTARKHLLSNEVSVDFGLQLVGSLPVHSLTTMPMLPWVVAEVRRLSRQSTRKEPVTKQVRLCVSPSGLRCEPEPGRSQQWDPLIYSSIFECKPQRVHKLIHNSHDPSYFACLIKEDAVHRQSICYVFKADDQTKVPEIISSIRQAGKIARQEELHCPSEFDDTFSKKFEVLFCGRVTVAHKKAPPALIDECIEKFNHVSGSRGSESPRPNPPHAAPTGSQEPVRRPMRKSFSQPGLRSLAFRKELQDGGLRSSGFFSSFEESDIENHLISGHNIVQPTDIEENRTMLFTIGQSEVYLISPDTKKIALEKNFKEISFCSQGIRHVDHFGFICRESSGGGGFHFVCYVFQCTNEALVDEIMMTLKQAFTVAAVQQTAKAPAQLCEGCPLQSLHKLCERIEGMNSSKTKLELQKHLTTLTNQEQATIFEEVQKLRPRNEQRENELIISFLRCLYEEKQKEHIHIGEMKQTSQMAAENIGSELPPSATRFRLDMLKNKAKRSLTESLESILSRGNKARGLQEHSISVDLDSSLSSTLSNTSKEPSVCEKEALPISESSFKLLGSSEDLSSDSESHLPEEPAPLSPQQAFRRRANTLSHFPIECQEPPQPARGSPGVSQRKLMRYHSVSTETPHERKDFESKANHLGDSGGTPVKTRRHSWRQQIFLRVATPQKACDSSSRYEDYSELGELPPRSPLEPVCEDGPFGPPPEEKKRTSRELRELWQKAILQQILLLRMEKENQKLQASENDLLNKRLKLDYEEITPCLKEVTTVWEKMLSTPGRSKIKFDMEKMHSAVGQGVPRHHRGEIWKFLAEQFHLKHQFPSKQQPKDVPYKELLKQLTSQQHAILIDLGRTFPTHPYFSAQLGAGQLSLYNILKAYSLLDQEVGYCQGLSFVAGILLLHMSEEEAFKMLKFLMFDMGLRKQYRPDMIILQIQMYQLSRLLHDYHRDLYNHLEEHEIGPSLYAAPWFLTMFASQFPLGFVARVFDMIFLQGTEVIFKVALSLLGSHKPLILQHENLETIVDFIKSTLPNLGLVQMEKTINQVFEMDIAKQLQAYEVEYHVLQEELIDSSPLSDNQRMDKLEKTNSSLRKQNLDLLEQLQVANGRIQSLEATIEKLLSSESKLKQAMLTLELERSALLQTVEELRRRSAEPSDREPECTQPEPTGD
UniProt Q9BZK7: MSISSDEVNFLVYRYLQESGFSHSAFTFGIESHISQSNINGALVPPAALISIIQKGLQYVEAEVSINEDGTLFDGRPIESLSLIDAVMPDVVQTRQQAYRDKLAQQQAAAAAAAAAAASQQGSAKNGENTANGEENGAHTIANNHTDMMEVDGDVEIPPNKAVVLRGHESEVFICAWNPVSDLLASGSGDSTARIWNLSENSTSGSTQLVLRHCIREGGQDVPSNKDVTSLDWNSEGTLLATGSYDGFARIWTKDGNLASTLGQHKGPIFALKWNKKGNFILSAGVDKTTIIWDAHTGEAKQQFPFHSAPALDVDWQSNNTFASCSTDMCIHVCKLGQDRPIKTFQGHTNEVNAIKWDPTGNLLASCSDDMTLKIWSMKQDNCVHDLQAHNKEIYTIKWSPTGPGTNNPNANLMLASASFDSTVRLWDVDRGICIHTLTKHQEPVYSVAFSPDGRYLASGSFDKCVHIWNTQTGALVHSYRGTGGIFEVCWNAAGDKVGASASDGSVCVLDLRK
UniProt Q03519, whole entry, looked up: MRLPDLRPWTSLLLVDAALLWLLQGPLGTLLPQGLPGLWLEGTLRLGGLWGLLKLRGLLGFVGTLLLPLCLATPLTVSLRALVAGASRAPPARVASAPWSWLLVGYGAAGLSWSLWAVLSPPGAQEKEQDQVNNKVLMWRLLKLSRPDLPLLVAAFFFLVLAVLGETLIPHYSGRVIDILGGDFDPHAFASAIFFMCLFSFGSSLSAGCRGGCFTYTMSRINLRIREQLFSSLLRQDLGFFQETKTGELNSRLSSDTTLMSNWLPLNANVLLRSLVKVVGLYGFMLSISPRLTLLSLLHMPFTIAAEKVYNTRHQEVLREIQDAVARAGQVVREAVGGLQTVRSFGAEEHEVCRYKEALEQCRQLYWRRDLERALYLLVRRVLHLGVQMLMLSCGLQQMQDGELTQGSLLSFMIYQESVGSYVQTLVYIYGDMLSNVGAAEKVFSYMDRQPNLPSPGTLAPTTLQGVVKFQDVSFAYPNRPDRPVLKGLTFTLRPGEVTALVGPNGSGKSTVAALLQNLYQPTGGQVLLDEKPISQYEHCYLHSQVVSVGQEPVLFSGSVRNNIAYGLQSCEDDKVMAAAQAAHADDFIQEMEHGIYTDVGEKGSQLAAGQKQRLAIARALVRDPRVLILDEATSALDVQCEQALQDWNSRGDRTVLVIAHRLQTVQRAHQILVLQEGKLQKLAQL
UniProt Q5T011: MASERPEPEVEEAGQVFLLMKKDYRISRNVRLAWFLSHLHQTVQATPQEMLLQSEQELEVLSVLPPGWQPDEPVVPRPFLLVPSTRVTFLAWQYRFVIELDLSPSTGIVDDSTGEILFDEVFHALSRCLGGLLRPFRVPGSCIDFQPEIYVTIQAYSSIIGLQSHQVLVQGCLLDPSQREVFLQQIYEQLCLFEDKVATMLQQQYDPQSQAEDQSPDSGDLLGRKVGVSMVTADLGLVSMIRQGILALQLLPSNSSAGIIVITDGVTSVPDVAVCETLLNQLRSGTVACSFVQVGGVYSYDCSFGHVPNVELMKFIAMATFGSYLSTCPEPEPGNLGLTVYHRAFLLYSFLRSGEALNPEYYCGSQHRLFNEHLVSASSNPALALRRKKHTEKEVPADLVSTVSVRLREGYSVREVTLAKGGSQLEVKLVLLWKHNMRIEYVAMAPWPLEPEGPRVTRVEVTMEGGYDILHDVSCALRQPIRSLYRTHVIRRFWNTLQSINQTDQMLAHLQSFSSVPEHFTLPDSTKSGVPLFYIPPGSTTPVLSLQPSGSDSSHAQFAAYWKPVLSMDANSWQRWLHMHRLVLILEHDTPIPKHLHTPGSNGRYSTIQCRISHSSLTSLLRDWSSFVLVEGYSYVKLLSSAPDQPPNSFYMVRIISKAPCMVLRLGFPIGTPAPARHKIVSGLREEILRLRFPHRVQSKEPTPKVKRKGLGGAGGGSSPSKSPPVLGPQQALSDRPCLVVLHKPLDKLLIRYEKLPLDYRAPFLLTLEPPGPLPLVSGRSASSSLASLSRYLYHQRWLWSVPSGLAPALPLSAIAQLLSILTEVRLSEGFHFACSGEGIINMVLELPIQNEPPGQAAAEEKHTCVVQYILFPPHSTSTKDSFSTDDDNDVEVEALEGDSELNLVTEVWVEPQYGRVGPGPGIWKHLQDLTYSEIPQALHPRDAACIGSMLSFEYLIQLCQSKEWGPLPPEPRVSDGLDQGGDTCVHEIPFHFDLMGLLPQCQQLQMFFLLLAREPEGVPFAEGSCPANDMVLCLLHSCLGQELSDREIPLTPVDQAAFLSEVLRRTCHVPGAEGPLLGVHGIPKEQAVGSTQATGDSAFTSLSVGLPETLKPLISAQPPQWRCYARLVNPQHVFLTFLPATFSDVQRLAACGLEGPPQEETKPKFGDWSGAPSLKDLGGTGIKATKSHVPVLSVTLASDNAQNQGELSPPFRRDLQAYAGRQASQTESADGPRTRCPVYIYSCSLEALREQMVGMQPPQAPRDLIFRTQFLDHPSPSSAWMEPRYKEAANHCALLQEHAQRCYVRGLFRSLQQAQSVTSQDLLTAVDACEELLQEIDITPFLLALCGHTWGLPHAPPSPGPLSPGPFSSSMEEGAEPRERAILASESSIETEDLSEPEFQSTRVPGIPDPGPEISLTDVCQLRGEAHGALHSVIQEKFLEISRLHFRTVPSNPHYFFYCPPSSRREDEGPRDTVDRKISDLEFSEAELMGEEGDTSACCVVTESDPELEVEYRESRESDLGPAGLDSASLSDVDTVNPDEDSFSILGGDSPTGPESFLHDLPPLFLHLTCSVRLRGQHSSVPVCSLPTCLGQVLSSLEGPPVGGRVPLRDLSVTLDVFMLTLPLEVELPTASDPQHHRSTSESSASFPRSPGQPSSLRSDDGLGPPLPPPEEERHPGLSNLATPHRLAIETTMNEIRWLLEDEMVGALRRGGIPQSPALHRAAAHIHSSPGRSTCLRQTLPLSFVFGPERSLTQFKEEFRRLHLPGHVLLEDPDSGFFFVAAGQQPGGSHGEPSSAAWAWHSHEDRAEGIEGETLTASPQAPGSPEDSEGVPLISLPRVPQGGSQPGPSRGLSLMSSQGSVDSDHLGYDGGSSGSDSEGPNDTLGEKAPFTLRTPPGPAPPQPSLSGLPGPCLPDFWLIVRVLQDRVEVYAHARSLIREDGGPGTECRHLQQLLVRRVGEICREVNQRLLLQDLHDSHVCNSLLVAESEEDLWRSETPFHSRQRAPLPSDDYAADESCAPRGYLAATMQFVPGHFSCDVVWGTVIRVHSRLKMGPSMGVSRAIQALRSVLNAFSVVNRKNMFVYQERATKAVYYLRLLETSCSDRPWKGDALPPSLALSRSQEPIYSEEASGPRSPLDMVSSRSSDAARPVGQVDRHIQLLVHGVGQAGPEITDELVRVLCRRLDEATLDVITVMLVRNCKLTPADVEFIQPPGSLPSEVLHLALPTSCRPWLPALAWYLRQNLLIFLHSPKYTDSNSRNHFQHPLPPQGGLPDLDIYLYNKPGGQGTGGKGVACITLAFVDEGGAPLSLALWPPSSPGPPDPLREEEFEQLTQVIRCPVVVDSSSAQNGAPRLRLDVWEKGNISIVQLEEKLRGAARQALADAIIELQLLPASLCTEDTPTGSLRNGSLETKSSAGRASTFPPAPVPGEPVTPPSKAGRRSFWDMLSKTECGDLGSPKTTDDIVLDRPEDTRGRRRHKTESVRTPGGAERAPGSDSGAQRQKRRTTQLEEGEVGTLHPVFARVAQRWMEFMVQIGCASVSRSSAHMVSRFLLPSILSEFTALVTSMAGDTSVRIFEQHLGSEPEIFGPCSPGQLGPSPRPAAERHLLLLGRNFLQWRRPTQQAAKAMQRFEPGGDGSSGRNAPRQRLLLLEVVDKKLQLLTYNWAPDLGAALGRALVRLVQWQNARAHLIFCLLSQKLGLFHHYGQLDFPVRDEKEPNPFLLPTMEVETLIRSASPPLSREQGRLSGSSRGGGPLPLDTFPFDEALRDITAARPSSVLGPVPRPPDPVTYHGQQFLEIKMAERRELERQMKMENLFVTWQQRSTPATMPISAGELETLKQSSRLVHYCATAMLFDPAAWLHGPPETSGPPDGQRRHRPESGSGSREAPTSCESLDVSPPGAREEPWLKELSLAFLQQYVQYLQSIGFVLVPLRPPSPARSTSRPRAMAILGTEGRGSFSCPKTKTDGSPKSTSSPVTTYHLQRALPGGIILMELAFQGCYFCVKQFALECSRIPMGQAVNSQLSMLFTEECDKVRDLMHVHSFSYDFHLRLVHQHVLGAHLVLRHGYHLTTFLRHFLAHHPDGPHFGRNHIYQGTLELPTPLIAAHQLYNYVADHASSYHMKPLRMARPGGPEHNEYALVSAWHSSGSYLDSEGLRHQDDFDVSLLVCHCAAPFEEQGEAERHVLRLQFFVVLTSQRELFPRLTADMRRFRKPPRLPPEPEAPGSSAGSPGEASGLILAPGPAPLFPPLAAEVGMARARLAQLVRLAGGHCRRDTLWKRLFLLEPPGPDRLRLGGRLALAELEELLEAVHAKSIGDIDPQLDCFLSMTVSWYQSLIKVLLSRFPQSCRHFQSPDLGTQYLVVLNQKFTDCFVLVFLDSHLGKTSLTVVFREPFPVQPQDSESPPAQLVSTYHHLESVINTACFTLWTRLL
UniProt Q9Y4P3: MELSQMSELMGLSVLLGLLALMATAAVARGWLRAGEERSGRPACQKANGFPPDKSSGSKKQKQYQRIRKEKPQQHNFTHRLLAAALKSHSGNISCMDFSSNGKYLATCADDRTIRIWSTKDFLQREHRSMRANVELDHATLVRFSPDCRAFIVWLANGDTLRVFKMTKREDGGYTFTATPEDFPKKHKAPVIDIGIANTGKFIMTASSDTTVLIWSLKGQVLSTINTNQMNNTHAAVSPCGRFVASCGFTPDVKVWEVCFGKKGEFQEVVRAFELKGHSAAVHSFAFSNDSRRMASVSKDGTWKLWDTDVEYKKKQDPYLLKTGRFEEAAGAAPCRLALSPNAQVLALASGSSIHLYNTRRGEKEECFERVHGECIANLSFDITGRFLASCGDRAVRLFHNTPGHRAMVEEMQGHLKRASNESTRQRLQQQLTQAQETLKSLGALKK
UniProt Q6P1N9: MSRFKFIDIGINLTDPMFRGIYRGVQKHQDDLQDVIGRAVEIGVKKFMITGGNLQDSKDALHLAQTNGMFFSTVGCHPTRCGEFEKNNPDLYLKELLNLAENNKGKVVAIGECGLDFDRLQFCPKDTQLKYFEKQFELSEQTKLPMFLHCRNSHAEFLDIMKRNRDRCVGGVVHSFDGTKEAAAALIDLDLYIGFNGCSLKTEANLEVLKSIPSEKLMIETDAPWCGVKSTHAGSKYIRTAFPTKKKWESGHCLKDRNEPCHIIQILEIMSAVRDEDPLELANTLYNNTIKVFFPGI

Compound: CC1Cc2ccccc2N1C(=O)C1CCCN(C1)C(=O)CCl (mixture of isomers) [TRIM25 ligand 11 (diastereomer mixture)]
Test: probe-labelled cysteine peptide fold change vs DMSO (competition) (log2 fold change); higher = less target engagement (more negative = stronger competition)
Conditions: THP-1, incubation time: 4 h
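Also: competitive chemoproteomic profiling in live THP-1 cells with an iodoacetamide desthiobiotin (IA-DTB) probe, comparing probe-labelled peptide intensities in compound-treated cells against DMSO-treated controls.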

Target | probe-labelled cysteine peptide fold change (10 µM) | probe-labelled cysteine peptide fold change (50 µM)
TBC1D2B_Q9UPU7_38_LCGYLQK (UniProt Q9UPU7) | -0.13 | -0.177
TBC1D1_Q86TI0_604_ANTLSHFPIECQEPPQPAR (UniProt Q86TI0) | 0.0979 | -0.0971
TCAF1_Q9Y4C2_576_IQIGCHTDDLTR (UniProt Q9Y4C2) | 0.0608 | 0.143
TARS2_Q9BW92_322_EQELFFFHELSPGSCFFLPR (UniProt Q9BW92) | 0.347 | 0.22
TAGLN2_P37802_124_NMACVQR (UniProt P37802) | -0.156 | 0.0569
TBL1XR1_Q9BZK7_465_CVHIWNTQTGALVHSYR (UniProt Q9BZK7) | 0.104 | -0.0415
TAF2_Q6P1X5_34_LTHQVVCINNINFQR (UniProt Q6P1X5) | -0.151 | 0.18
TARS2_Q9BW92_233_VTGPTATVYGCGTLVDLCQGPHLR (UniProt Q9BW92) | 0.288 | 0.266
TBL1XR1_Q9BZK7_434_LWDVDRGICIHTLTK (UniProt Q9BZK7) | -0.327 | -0.0418
TBC1D22B_Q9NU19_206_CSWPGVPR (UniProt Q9NU19) | 0.0348 | 0.122
TBC1D4_O60343_402_HVDHFGFICR (UniProt O60343) | -0.0405 | 0.0174
TBC1D13_Q9NVG8_261_EHAEADTFFCFTNLMAEIR (UniProt Q9NVG8) | 0.243 | 0.000832
SYVN1_Q86TM6_326+329_QQTCPTCR (UniProt Q86TM6) | 0.113 | 0.0121
TAB1_Q15750_235_QVGIICGQESTR (UniProt Q15750) | 0.0559 | 0.136
TAP2_Q03519_353_SFGAEEHEVCR (UniProt Q03519) | 0.0104 | -0.114
SYMPK_Q92797_686_KYCEDESR (UniProt Q92797) | -0.0067 | 0.119
SZT2_Q5T011_2893_EAPTSCESLDVSPPGAR (UniProt Q5T011) | 0.119 | -0.0522
TAF1B_Q53T94_326_YLMEVNLPDEMHSLTCHVVK (UniProt Q53T94) | 0.0849 | -0.0796
TBL2_Q9Y4P3_259_VWEVCFGK (UniProt Q9Y4P3) | 0.124 | 0.152
TBL1XR1_Q9BZK7_434_GICIHTLTK (UniProt Q9BZK7) | -0.0452 | 0.0102
TBC1D1_Q86TI0_604_RANTLSHFPIECQEPPQPAR (UniProt Q86TI0) | 0.0159 | -0.042
TBL2_Q9Y4P3_335_TGRFEEAAGAAPCR (UniProt Q9Y4P3) | -0.0894 | -0.161

Complete entries, quoted from the list.
TARS2_Q9BW92_233_VTGPTATVYGCGTLVDLCQGPHLR (UniProt Q9BW92) in the list: probe-labelled cysteine peptide fold change (10 µM) = 0.288; probe-labelled cysteine peptide fold change (50 µM) = 0.266
TBL2_Q9Y4P3_335_TGRFEEAAGAAPCR (UniProt Q9Y4P3) in the list: probe-labelled cysteine peptide fold change (10 µM) = -0.0894; probe-labelled cysteine peptide fold change (50 µM) = -0.161
TBC1D2B_Q9UPU7_38_LCGYLQK (UniProt Q9UPU7) in the list: probe-labelled cysteine peptide fold change (10 µM) = -0.13; probe-labelled cysteine peptide fold change (50 µM) = -0.177
TBC1D22B_Q9NU19_206_CSWPGVPR (UniProt Q9NU19) in the list: probe-labelled cysteine peptide fold change (10 µM) = 0.0348; probe-labelled cysteine peptide fold change (50 µM) = 0.122

(next part)

Target | probe-labelled cysteine peptide fold change (10 µM) | probe-labelled cysteine peptide fold change (50 µM)
TBC1D9B_Q66K14_162_LVNYYSCSYWK (UniProt Q66K14) | 0.119 | 0.0901
TBC1D10A_Q9BXI6_324_ACQGQYETIER (UniProt Q9BXI6) | -0.013 | -0.14
TCEA1_P23193_212_KNVLCGNIPPDLFAR (UniProt P23193) | -0.214 | -0.0512
TATDN3_Q17R31_66_YNGFVLPCLGVHPVQGLPPEDQR (UniProt Q17R31) | -0.149 | -0.0921
SZT2_Q5T011_865_HTCVVQYILFPPHSTSTK (UniProt Q5T011) | 0.144 | -0.0931
TANK_Q92844_218_GLCRDEEDTSFESLSK (UniProt Q92844) | -0.0763 | -0.0844
TBCE_Q15813_152_GGVAEACPNIR (UniProt Q15813) | -0.0301 | 0.0661
SZT2_Q5T011_1152_LAACGLEGPPQEETKPK (UniProt Q5T011) | -0.0486 | -0.226
TAPT1_Q6NXT6_562_DLLEIDRFTICGNR (UniProt Q6NXT6) | -0.000619 | -0.0974
TBCC_Q15814_284_AIVEDCSGIQFAPYTWSYPEIDK (UniProt Q15814) | 0.374 | 0.173
TARS_P26639_413_ELFALKPMNCPGHCLMFDHRPR (UniProt P26639) | -0.0216 | -0.0677
TAPBPL_Q9BX59_122_EVTCEISR (UniProt Q9BX59) | 0.00569 | 0.0559
TATDN1_Q6P1N9_253_KWESGHCLK (UniProt Q6P1N9) | 0.0664 | -0.0599
TAF12_Q16514_143_ACTTEAHK (UniProt Q16514) | -0.0884 | -0.0938
TAP2_Q03519_571_NNIAYGLQSCEDDK (UniProt Q03519) | 0.0776 | 0.0769
TAP1_Q03518_722_KPCVLILDDATSALDANSQLQVEQLLYESPER (UniProt Q03518) | -0.0352 | 0.0123
TBRG4_Q969Z0_370_AQDITLPHLCSVLLAFAR (UniProt Q969Z0) | -0.121 | 0.0306
SWAP70_Q9UH65_40_VLSHNLCTVLK (UniProt Q9UH65) | 0.0184 | 0.0423
TBC1D1_Q86TI0_390_APAQLCEGCPLQSLHK (UniProt Q86TI0) | 0.253 | 0.00724
TAPBP_O15533_91_GAPAPHCEMSR (UniProt O15533) | -0.0661 | -0.0587
SYK_P43405_597_MGCPAGCPR (UniProt P43405) | -0.0238 | -0.0779
TBC1D1_Q86TI0_178_KFEVLFCGR (UniProt Q86TI0) | -0.0471 | -0.081
